The other results are listed elsewhere or left out.
Tests used:
Experiment in all cases: log2 fold change, soluble protein after heating vs DMSO (PISA); higher = thermal stabilisation; K562 cells, 10 uM, 30 min; active = over 0.2 and 3.5 SD of the protein, either way, in both replicates (recomputed)
bafetinib = compound: Cc1ccc(NC(=O)c2ccc(CN3CC[C@H](N(C)C)C3)c(C(F)(F)F)c2)cc1Nc1nccc(-c2cncnc2)n1 [bafetinib]
Summary of the method: (§1)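 Soluble protein was quantified by TMTpro 16plex LC-MS/MS after channel sums were equalised. It was obtained as the supernatant after 21,000xg for 90 min from pooled aliquots of K562 cells (2×10^6 cells/mL, 10 μM compound, 30 min) heated for 3 min across 48°C-58°C and extracted in PBS with 0.5% NP-40 at 4°C. Thermal stability values are relative to control samples and come from duplicates. They are given as log2 fold changes.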

Protein sequences, listed by entry. Tags and fused reporters are not part of them. Lines headed by an entry give the natural chain unless they say otherwise; changes in a name come on top.
UniProt P17812: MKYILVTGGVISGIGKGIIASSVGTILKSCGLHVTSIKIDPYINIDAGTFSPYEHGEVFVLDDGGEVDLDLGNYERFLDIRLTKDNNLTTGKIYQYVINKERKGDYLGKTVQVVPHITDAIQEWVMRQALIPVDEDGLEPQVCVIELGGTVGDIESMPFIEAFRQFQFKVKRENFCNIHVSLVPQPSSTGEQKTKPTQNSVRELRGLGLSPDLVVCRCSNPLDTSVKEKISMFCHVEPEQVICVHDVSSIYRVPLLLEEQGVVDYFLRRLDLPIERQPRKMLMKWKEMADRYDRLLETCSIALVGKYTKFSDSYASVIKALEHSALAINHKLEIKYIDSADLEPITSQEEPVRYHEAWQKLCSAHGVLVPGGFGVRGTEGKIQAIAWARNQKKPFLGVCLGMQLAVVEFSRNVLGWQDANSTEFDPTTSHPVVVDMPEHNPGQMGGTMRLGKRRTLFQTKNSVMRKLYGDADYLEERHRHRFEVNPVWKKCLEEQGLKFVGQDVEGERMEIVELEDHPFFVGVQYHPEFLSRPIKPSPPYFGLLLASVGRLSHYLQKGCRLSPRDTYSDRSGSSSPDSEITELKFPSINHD
UniProt Q6VVX0: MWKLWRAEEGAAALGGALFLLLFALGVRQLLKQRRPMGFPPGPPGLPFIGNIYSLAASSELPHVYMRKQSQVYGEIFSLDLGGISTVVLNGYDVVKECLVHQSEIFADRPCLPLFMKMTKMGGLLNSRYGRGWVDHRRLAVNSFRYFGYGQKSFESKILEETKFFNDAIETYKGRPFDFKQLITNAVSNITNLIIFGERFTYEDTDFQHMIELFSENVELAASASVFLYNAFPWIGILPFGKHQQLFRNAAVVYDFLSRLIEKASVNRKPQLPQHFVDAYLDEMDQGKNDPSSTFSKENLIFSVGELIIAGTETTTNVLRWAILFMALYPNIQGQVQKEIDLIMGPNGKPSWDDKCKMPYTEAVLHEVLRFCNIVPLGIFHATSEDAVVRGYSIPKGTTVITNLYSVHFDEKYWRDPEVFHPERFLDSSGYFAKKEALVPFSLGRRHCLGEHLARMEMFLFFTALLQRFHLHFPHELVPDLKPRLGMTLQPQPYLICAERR
UniProt P61803: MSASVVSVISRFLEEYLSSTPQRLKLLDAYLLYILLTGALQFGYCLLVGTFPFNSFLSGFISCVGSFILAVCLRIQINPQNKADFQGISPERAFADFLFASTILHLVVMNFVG
UniProt Q9H1C7: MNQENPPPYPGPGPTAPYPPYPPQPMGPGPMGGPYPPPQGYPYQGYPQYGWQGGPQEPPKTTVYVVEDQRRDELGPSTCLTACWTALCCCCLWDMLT
UniProt P49447: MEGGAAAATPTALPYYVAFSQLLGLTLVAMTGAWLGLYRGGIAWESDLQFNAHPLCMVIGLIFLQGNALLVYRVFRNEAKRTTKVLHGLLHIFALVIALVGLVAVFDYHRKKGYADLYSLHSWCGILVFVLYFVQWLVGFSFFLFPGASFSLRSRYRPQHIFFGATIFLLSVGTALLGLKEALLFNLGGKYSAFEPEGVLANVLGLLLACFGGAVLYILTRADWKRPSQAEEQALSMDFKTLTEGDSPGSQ
UniProt Q07973: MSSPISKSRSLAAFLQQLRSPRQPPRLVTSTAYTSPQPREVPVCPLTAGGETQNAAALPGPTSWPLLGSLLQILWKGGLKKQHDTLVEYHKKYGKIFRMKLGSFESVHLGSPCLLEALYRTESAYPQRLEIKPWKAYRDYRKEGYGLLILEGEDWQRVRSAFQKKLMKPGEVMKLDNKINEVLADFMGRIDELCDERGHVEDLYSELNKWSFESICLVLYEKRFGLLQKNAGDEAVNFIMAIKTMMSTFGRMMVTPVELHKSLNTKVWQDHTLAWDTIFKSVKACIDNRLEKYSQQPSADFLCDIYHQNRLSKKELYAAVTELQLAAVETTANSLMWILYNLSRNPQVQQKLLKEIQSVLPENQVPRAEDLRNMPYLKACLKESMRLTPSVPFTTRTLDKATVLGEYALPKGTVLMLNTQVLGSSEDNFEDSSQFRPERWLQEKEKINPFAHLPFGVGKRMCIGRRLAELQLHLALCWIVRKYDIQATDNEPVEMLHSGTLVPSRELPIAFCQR
UniProt P00167, whole entry, looked up: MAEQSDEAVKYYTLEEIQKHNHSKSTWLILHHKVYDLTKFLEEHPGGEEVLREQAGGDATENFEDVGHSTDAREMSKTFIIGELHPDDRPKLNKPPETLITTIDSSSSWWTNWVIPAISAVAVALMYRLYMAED
UniProt P01036: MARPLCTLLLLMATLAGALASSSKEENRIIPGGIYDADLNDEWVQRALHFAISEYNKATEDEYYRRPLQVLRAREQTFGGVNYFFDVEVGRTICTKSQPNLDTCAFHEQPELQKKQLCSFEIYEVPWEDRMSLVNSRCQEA
UniProt Q7L1T6: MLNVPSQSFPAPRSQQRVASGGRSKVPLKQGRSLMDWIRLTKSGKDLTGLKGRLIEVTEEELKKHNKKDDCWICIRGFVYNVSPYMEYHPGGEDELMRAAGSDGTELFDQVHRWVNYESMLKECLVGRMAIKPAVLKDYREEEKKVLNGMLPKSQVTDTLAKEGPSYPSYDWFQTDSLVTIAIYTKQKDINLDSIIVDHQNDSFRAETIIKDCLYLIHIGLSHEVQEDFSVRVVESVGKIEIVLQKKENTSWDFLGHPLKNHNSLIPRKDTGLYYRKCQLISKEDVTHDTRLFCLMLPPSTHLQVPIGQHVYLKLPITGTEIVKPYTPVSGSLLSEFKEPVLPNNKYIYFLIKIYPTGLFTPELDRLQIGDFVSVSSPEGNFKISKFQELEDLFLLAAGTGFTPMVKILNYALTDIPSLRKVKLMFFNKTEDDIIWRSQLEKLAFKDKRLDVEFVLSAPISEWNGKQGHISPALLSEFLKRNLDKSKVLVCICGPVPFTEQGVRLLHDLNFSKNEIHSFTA
UniProt O60716: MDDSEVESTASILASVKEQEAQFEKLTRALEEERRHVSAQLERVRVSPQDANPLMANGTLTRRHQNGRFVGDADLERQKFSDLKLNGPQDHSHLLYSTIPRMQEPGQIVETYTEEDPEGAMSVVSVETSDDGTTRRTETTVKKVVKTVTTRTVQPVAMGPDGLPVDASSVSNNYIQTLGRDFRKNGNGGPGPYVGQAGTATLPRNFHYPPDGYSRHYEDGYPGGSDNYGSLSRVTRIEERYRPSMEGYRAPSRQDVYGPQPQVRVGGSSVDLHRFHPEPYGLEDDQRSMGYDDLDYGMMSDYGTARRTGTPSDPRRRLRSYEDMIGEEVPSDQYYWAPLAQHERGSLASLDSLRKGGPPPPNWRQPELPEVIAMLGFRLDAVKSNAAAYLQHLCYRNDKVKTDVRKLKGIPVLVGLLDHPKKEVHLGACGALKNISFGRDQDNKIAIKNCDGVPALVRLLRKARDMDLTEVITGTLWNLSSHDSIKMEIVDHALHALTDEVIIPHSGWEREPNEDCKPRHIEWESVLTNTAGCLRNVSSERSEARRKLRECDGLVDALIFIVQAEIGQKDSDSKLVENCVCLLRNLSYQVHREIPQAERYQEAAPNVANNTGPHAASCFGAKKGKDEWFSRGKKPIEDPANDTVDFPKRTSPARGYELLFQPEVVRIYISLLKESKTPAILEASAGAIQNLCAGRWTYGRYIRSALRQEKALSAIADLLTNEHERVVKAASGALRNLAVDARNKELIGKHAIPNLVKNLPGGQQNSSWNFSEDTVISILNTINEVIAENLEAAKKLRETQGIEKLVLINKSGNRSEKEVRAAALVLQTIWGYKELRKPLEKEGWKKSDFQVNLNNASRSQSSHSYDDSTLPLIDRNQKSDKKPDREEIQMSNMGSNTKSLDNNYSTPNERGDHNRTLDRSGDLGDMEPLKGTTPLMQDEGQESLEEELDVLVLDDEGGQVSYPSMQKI

[1] = compound: Cc1cccc(CC(=O)N2CCc3c2ccc(-c2cn(C)c4ncnc(N)c24)c3F)n1
Summary of the method: as §1

nilotinib = compound: Cc1cn(-c2cc(NC(=O)c3ccc(C)c(Nc4nccc(-c5cccnc5)n4)c3)cc(C(F)(F)F)c2)cn1 [nilotinib]
Summary of the method: as §1

[2] = compound: Cc1nc(Nc2n[nH]c3c2CN(C(=O)N[C@H](CN(C)C)c2ccccc2)C3(C)C)c2sccc2n1
Summary of the method: as §1

dasatinib = compound: Cc1nc(Nc2ncc(C(=O)Nc3c(C)cccc3Cl)s2)cc(N2CCN(CCO)CC2)n1 [dasatinib]
Summary of the method: as §1

[3] = compound: Cc1ncc(-c2ccnc(Nc3ccc(S(C)(=O)=O)cc3)n2)n1C(C)C
Summary of the method: as §1

[4] = compound: Cn1cc(-c2ccc3c(c2)CCN3C(=O)Cc2cccc(C(F)(F)F)c2)c2c(N)ncnc21
Summary of the method: as §1

[5] = compound: Cn1cc(-c2ccc3nnc(C(F)(F)c4ccc5ncccc5c4)n3n2)cn1
Summary of the method: as §1

tipifarnib = compound: Cn1cncc1[C@@](N)(c1ccc(Cl)cc1)c1ccc2c(c1)c(-c1cccc(Cl)c1)cc(=O)n2C [tipifarnib]
Summary of the method: as §1

mubritinib = compound: FC(F)(F)c1ccc(/C=C/c2nc(COc3ccc(CCCCn4ccnn4)cc3)co2)cc1 [mubritinib]
Summary of the method: as §1

[6] = compound: NC(=O)Nc1cc(-c2cccc(F)c2)sc1C(=O)N[C@H]1CCCNC1
Summary of the method: as §1

[7] = compound: NC(=O)c1cnc(N[C@@H]2CCCC[C@@H]2N)nc1Nc1cccc(-n2nccn2)c1
Summary of the method: as §1

[8] = compound: NC1(c2ccc(-c3nc4ccn5c(=O)[nH]nc5c4cc3-c3ccccc3)cc2)CCC1
Summary of the method: as §1

[9] = compound: NCC(=O)Nc1ccc(-n2nc(C(F)(F)F)cc2-c2ccc3c(ccc4ccccc43)c2)cc1
Summary of the method: as §1

entinostat = compound: Nc1ccccc1NC(=O)c1ccc(CNC(=O)OCc2cccnc2)cc1 [entinostat]
Summary of the method: as §1

vorinostat = compound: O=C(CCCCCCC(=O)Nc1ccccc1)NO [vorinostat]
Summary of the method: as §1

citarinostat = compound: O=C(CCCCCCNC(=O)c1cnc(N(c2ccccc2)c2ccccc2Cl)nc1)NO [citarinostat]
Summary of the method: as §1

silmitasertib = compound: O=C(O)c1ccc2c(c1)nc(Nc1cccc(Cl)c1)c1ccncc12 [silmitasertib]
Summary of the method: as §1

[10] = compound: O=C1NC(=O)C(c2cnc3ccccn23)=C1c1cn2c3c(cc(F)cc13)CN(C(=O)N1CCCCC1)CC2
Summary of the method: as §1

[11] = compound: c1cc(OCCN2CCCCC2)cc(-c2n[nH]c3ccc(-c4nnc[nH]4)cc23)c1
Summary of the method: as §1

Measured: log2 fold change

CTPS1 (UniProt P17812)
inactive: bafetinib -0.027 | [1] -0.022 | nilotinib -0.019 | [2] -0.004 | dasatinib 0.012 | [3] 0.01 | [4] 0.029 | [5] 0.018 | tipifarnib -0.011 | mubritinib 0 | [6] 0.002 | [7] 0.005 | [8] -0.025 | [9] 0.023 | entinostat -0.018 | vorinostat -0.036 | citarinostat 0.013 | silmitasertib -0.005 | [10] -0.029 | [11] -0.009

CYP2R1 (UniProt Q6VVX0)
inactive: bafetinib 0.049 | nilotinib -0.069 | [2] -0.022 | [3] 0.011 | [4] 0.191 | citarinostat -0.162 | [11] -0.032

DAD1 (UniProt P61803)
inactive: bafetinib -0.094 | nilotinib 0.008 | [2] -0.156 | dasatinib 0.064 | [3] 0.073 | [4] 0.032 | tipifarnib 0.09 | mubritinib -0.231 | [6] 0.021 | [7] 0.016 | [8] -0.017 | [9] -0.036 | entinostat -0.111 | citarinostat -0.021 | silmitasertib -0.122 | [10] -0.038 | [11] 0.175

CYSTM1 (UniProt Q9H1C7)
inactive: bafetinib -0.222 | nilotinib 0.029 | [2] -0.04 | dasatinib 0.036 | [3] -0.007 | [4] 0.052 | [5] -0.027 | tipifarnib 0.292 | mubritinib 0.113 | [6] 0.013 | [7] 0.187 | [8] -0.029 | [9] -0.006 | entinostat 0.051 | citarinostat 0.231 | silmitasertib -0.092 | [11] -0.027

CYB561 (UniProt P49447)
inactive: bafetinib 0.179 | [1] -0.079 | nilotinib 0.117 | [2] 0.06 | dasatinib 0.128 | [3] 0.036 | [4] 0.077 | [5] 0.02 | tipifarnib 0.01 | mubritinib 0.05 | [7] 0.126 | [8] 0.032 | [9] -0.081 | vorinostat -0.166 | citarinostat 0.008 | silmitasertib 0.127 | [11] -0.204

CYP24A1 (UniProt Q07973)
inactive: bafetinib 0.373 | [1] -0.049 | nilotinib 0.01 | [2] 0.167 | dasatinib 0.184 | [3] -0.105 | [5] -0.057 | tipifarnib 0.101 | mubritinib -0.074 | [7] 0.045 | [8] 0.43 | [9] 0.21 | vorinostat 0.067 | citarinostat -0.002 | silmitasertib 0.099 | [11] 0.109

Taken from the listing (2 entries):
CYB561 (UniProt P49447)
inactive: bafetinib 0.179 | [1] -0.079 | nilotinib 0.117 | [2] 0.06 | dasatinib 0.128 | [3] 0.036 | [4] 0.077 | [5] 0.02 | tipifarnib 0.01 | mubritinib 0.05 | [7] 0.126 | [8] 0.032 | [9] -0.081 | vorinostat -0.166 | citarinostat 0.008 | silmitasertib 0.127 | [11] -0.204

CYP24A1 (UniProt Q07973)
inactive: bafetinib 0.373 | [1] -0.049 | nilotinib 0.01 | [2] 0.167 | dasatinib 0.184 | [3] -0.105 | [5] -0.057 | tipifarnib 0.101 | mubritinib -0.074 | [7] 0.045 | [8] 0.43 | [9] 0.21 | vorinostat 0.067 | citarinostat -0.002 | silmitasertib 0.099 | [11] 0.109

Next part:

CYB5A (UniProt P00167)
inactive: bafetinib -0.047 | [1] -0.037 | nilotinib 0.004 | [2] -0.024 | dasatinib -0.05 | [3] 0.022 | [5] 0.215 | tipifarnib 0.042 | mubritinib 0.021 | [6] 0.023 | [7] 0.141 | [8] -0.023 | [9] 0.03 | entinostat 0.041 | vorinostat -0.034 | citarinostat -0.007 | silmitasertib 0.015 | [10] -0.117 | [11] -0.017

CST4 (UniProt P01036)
inactive: bafetinib 0.138 | nilotinib -0.306 | [2] 0.158 | [3] 0.114 | [4] 0.072 | mubritinib 0.584 | [6] 0.164 | [8] 0.107 | [9] 0.017 | entinostat -0.437 | silmitasertib -0.058

CYB5R4 (UniProt Q7L1T6)
inactive: bafetinib -0.044 | [1] -0.065 | nilotinib 0.001 | [2] -0.019 | dasatinib -0.045 | [3] 0.022 | [4] 0.033 | [5] 0.03 | tipifarnib -0.017 | mubritinib 0.035 | [6] -0.035 | [7] -0.042 | [8] -0.084 | [9] -0.062 | entinostat 0 | vorinostat -0.005 | citarinostat 0.007 | silmitasertib 0 | [10] -0.074 | [11] -0.136

CTNND1 (UniProt O60716)
inactive: bafetinib 0.118 | [1] -0.076 | dasatinib 0.017 | [4] -0.243 | [5] -0.038 | tipifarnib 0.052 | mubritinib -0.203 | [6] 0.145 | [7] 0.032 | [8] 0.219 | [9] 0.155 | entinostat 0.051 | vorinostat 0.061 | citarinostat -0.086 | silmitasertib 0.072 | [10] 0.197 | [11] -0.061

Source: the supplement of paper PMC10849652
